Reference: PubChem BioAssay AID1671195 (Yale University, 2021)

- Assay: 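Regulators of LDL receptor activity judged by labelled LDL uptake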 (primary screen)
- Cell system: human Huh7 hepatoma cells
- Reagent: siRNA pool against human genes, 18 nM
- Time to read-out: about 2 to 2.5 days of knockdown, then 8 h LDL uptake
- Challenge: DiI-labelled LDL at 30 µg/ml for 8 h, in lipoprotein-deficient serum medium
- Read-out: 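Fluorescent LDL signal imaged in cells, scaled to the plate median, robust z-score for each replicate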
- Direction: robust z-score: higher = more LDL uptake after knockdown
- Hit rule: 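a gene counts as active if at least two replicate z-scores exceed ±2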
The whole screen tested about 22,000 reagents; this is an unselected part. About 1,510 of them (6.9%) were called active. 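Active includes knockdowns raising or lowering LDL uptake; positive z-scores mean more uptake, negative mean less.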

gene	robust z-score, replicate 1	robust z-score, replicate 2	robust z-score, replicate 3	Outcome
SPC24 (SPC24 component of NDC80 kinetochore complex)	-0.0414	-1.26	0.433	inactive
ZNF626 (zinc finger protein 626)	1.37	1.87	1.29	inactive
ANKRD37 (ankyrin repeat domain 37)	-1.18	-0.345	-1.02	inactive
KLF5 (KLF transcription factor 5)	-1.99	-1.84	-1.66	inactive
MRPS34 (mitochondrial ribosomal protein S34)	-0.728	-0.52	-0.776	inactive
LOC388140 (retired record)	-1.46	-1.02	-1.35	inactive
CD19 (CD19 molecule)	0.284	-0.816	0.404	inactive
GLTPD2 (glycolipid transfer protein domain containing 2)	-0.678	-0.513	-0.346	inactive
TPT1P4 (TPT1 pseudogene 4)	-0.165	-0.0685	-0.283	inactive
LOC441540 (retired record)	1.72	1.16	0.72	inactive
DNAJC18 (DnaJ heat shock protein family (Hsp40) member C18)	2.69	3.53	3.22	active
RAB3GAP1 (RAB3 GTPase activating protein catalytic subunit 1)	0.341	1.58	1.23	inactive
SEPSECS	-1.29	-0.629	-1.53	inactive
CATSPER4 (cation channel sperm associated 4)	-0.793	-0.391	-0.433	inactive
DHRS13 (dehydrogenase/reductase 13)	1.21	2.23	1.29	inactive
LRRC15 (leucine rich repeat containing 15)	1.32	-0.312	0.567	inactive
SNRPD1 (small nuclear ribonucleoprotein D1 polypeptide)	-0.242	-0.619	-0.648	inactive
RPL6P1 (ribosomal protein L6 pseudogene 1)	0.468	0.966	0.892	inactive
MAGEC2 (MAGE family member C2)	1.09	0.528	1.26	inactive
RYK (receptor like tyrosine kinase)	1.22	0.507	0.317	inactive
LOC442037 (retired record)	0.774	0.0967	-2	inactive
PLEC (plectin)	-0.249	-0.0204	-0.526	inactive
RARS2 (arginyl-tRNA synthetase 2, mitochondrial)	2.32	1.97	1.75	active
STIMATE (STIM activating enhancer)	0.062	-0.0196	0.142	inactive
TANC1	0.631	0.915	0.819	inactive
SOX30 (SRY-box transcription factor 30)	3.56	4.11	3.81	active
P3H4 (prolyl 3-hydroxylase family member 4 (inactive))	0.175	0.463	-0.202	inactive
ITGB1BP1 (integrin subunit beta 1 binding protein 1)	-0.135	0.344	-0.172	inactive
HLA-L (major histocompatibility complex, class I, L (pseudogene))	0.194	-0.153	0.168	inactive
OGDHL (oxoglutarate dehydrogenase L)	-0.276	-0.00591	-0.78	inactive
GLTP (glycolipid transfer protein)	-1.04	-0.13	0.699	inactive
TDRD9 (tudor domain containing 9)	-0.681	-0.355	-0.549	inactive
PADI2 (peptidyl arginine deiminase 2)	-0.148	-1.1	-0.134	inactive
ASMT (acetylserotonin O-methyltransferase)	1.3	2.17	1.07	inactive
FEZF2 (FEZ family zinc finger 2)	-1.77	-1.97	-1.18	inactive
EMILIN2 (elastin microfibril interfacer 2)	-0.957	-0.819	-0.993	inactive
DNAJB9 (DnaJ heat shock protein family (Hsp40) member B9)	0.0705	0.146	0.226	inactive

An excerpt from above, reduced to “robust z-score, replicate 3”:
GLTPD2 (glycolipid transfer protein domain containing 2) = -0.346
TPT1P4 (TPT1 pseudogene 4) = -0.283
LOC441540 (retired record) = 0.72
DNAJC18 (DnaJ heat shock protein family (Hsp40) member C18) = 3.22
RAB3GAP1 (RAB3 GTPase activating protein catalytic subunit 1) = 1.23

The list goes on.
gene	robust z-score, replicate 1	robust z-score, replicate 2	robust z-score, replicate 3	Outcome
SIDT2 (SID1 transmembrane family member 2)	0.216	-0.997	0.399	inactive
SIRPA (signal regulatory protein alpha)	-0.219	0.0736	-0.0726	inactive
NPM1P22 (nucleophosmin 1 pseudogene 22)	-0.375	-0.244	-0.0102	inactive
MALT1 (MALT1 paracaspase)	-0.767	-1.67	-1.01	inactive
PRSS51 (serine protease 51)	1.82	1.05	1.33	inactive
CST4 (cystatin S)	-0.159	-0.75	-0.627	inactive
LRRC59 (leucine rich repeat containing 59)	-0.927	-0.273	0.841	inactive
ZFYVE26 (zinc finger FYVE-type containing 26)	-1.47	-0.297	-0.461	inactive
ACOT13 (acyl-CoA thioesterase 13)	1.01	1.08	2.23	inactive
CMTM6 (CKLF like MARVEL transmembrane domain containing 6)	0.0127	0.0692	0.719	inactive
EFNB1 (ephrin B1)	-0.662	1.85	0.205	inactive
SLC22A13	-0.643	-0.43	-0.105	inactive
GSK3B (glycogen synthase kinase 3 beta)	-0.18	0.681	0.968	inactive
RTP1 (receptor transporter protein 1)	0.149	0.216	0.665	inactive
PSME3IP1 (proteasome activator subunit 3 interacting protein 1)	0.496	0.646	0.384	inactive
NAV3 (neuron navigator 3)	-0.47	-0.587	-0.577	inactive
ZBTB22 (zinc finger and BTB domain containing 22)	1.63	0.515	0.779	inactive
PKP1 (plakophilin 1)	2.52	2.56	1.92	active
RNF182 (ring finger protein 182)	1.2	1.02	1.64	inactive
NTF4 (neurotrophin 4)	-0.167	0.324	-0.415	inactive
CPT1A (carnitine palmitoyltransferase 1A)	0.623	-0.119	0.37	inactive
LOC440536 (retired record)	1.87	1.93	2.34	inactive
LOC339997 (retired record)	-0.56	-0.372	-0.304	inactive
CARINH	-0.145	-0.538	-0.0675	inactive
CACNA2D3	-0.793	-0.991	-0.853	inactive
PPP1R17 (protein phosphatase 1 regulatory subunit 17)	1.37	0.879	0.461	inactive
C20orf203 (chromosome 20 open reading frame 203)	0.797	0.71	-0.121	inactive
ANKRD20A18P (ankyrin repeat domain 20 family member A18, pseudogene)	0.652	-0.217	-0.139	inactive
LINC00173 (long independently transcribed non-coding RNA 173)	1.42	0.689	1.12	inactive
POPDC3 (popeye domain cAMP effector 3)	0.802	0.83	0.237	inactive
PPP4R3A (protein phosphatase 4 regulatory subunit 3A)	0.524	1.48	1.73	inactive
